Source: the supplement of paper PMC8728848
The list shows a part of the results.

Key:
Assay in all cases: glycan array binding signal (z-score within array); higher = stronger binding
Conditions in all cases: glycan notation: IUPAC condensed, linker removed
[1] = target: Neu5Ac(a2-3)Gal(b1-3)[Fuc(a1-4)]GlcNAc
How it was run: (§1)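 Glycan array data were curated from 3228 arrays in the Consortium for Functional Glycomics database and kept only where the protein sequence was available. Glycan names were converted to IUPAC-condensed notation, and columns mapping to the same glycan were averaged. The binding signal is a within-array Z-score, averaged across arrays of the same protein sequence at different concentrations or buffers and across linkers. Negative Z-scores can be read as non-binding.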

[2] = target: Neu5Ac(a2-3)Gal(b1-3)[Fuc(a1-4)]GlcNAc(b1-3)Gal(b1-3)[Fuc(a1-4)]GlcNAc
How it was run: as §1

[3] = target: Neu5Ac(a2-3)Gal(b1-3)[Fuc(a1-4)]GlcNAc(b1-3)Gal(b1-4)[Fuc(a1-3)]GlcNAc
How it was run: as §1

[4] = target: Neu5Ac(a2-3)Gal(b1-3)[GlcNAc(b1-6)]GalNAc
How it was run: as §1

[5] = target: Neu5Ac(a2-3)Gal(b1-3)[Neu5Ac(a2-6)]GalNAc
How it was run: as §1

[6] = target: Neu5Ac(a2-3)Gal(b1-3)[Neu5Ac(a2-6)]GlcNAc(b1-3)[Fuc(a1-3)[Gal(b1-4)]GlcNAc(b1-6)]Gal(b1-4)Glc
How it was run: as §1

[7] = target: Neu5Ac(a2-3)Gal(b1-3)]Neu5Ac(a2-3)Gal(b1-4)]GlcNAc
How it was run: as §1

Neu5Ac(a2-3)Gal(b1-4)Glc = target: Neu5Ac(a2-3)Gal(b1-4)Glc
How it was run: as §1

[8] = target: Neu5Ac(a2-3)Gal(b1-4)GlcNAc
How it was run: as §1

[9] = target: Neu5Ac(a2-3)Gal(b1-4)GlcNAc(b1-2)Man
How it was run: as §1

[10] = target: Neu5Ac(a2-3)Gal(b1-4)GlcNAc(b1-2)Man(a1-3)[GlcNAc(b1-4)][Neu5Ac(a2-3)Gal(b1-4)GlcNAc(b1-2)Man(a1-6)]Man(b1-4)GlcNAc(b1-4)GlcNAc
How it was run: as §1

[11] = target: Neu5Ac(a2-3)Gal(b1-4)GlcNAc(b1-2)Man(a1-3)[Neu5Ac(a2-3)Gal(b1-4)GlcNAc(b1-2)Man(a1-6)]Man(b1-4)GlcNAc(b1-4)GlcNAc
How it was run: as §1

[12] = target: Neu5Ac(a2-3)Gal(b1-4)GlcNAc(b1-2)Man(a1-3)[Neu5Ac(a2-3)Gal(b1-4)GlcNAc(b1-2)Man(a1-6)]Man(b1-4)GlcNAc(b1-4)[Fuc(a1-6)]GlcNAc
How it was run: as §1

[13] = target: Neu5Ac(a2-3)Gal(b1-4)GlcNAc(b1-2)Man(a1-3)[Neu5Ac(a2-6)Gal(b1-4)GlcNAc(b1-2)Man(a1-6)]Man(b1-4)GlcNAc(b1-4)GlcNAc
How it was run: as §1

[14] = target: Neu5Ac(a2-3)Gal(b1-4)GlcNAc(b1-2)[Neu5Ac(a2-3)Gal(b1-4)GlcNAc(b1-4)]Man(a1-3)[GlcNAc(b1-4)][Neu5Ac(a2-3)Gal(b1-4)GlcNAc(b1-2)[Neu5Ac(a2-3)Gal(b1-4)GlcNAc(b1-6)]Man(a1-6)]Man(b1-4)GlcNAc(b1-4)GlcNAc
How it was run: as §1

[15] = target: Neu5Ac(a2-3)Gal(b1-4)GlcNAc(b1-2)[Neu5Ac(a2-3)Gal(b1-4)GlcNAc(b1-4)]Man(a1-3)[GlcNAc(b1-4)][Neu5Ac(a2-3)Gal(b1-4)GlcNAc(b1-4)Man(a1-6)]Man(b1-4)GlcNAc(b1-4)GlcNAc
How it was run: as §1

[16] = target: Neu5Ac(a2-3)Gal(b1-4)GlcNAc(b1-2)[Neu5Ac(a2-3)Gal(b1-4)GlcNAc(b1-6)]Man(a1-6)[Neu5Ac(a2-3)Gal(b1-4)GlcNAc(b1-2)Man(a1-3)]Man(b1-4)GlcNAc(b1-4)GlcNAc
How it was run: as §1

[17] = target: Neu5Ac(a2-3)Gal(b1-4)GlcNAc(b1-2)[Neu5Ac(a2-3)Gal(b1-4)GlcNAc(b1-6)]Man(a1-6)[Neu5Ac(a2-3)Gal(b1-4)GlcNAc(b1-2)Man(a1-3)][GlcNAc(b1-4)]Man(b1-4)GlcNAc(b1-4)GlcNAc
How it was run: as §1

[18] = target: Neu5Ac(a2-3)Gal(b1-4)GlcNAc(b1-3)Gal
How it was run: as §1

[19] = target: Neu5Ac(a2-3)Gal(b1-4)GlcNAc(b1-3)Gal(b1-3)GlcNAc
How it was run: as §1

[20] = target: Neu5Ac(a2-3)Gal(b1-4)GlcNAc(b1-3)Gal(b1-4)GlcNAc
How it was run: as §1

[21] = target: Neu5Ac(a2-3)Gal(b1-4)GlcNAc(b1-3)Gal(b1-4)GlcNAc(b1-2)Man(a1-3)[Neu5Ac(a2-3)Gal(b1-4)GlcNAc(b1-3)Gal(b1-4)GlcNAc(b1-2)Man(a1-6)]Man(b1-4)GlcNAc(b1-4)GlcNAc
How it was run: as §1

[22] = target: Neu5Ac(a2-3)Gal(b1-4)GlcNAc(b1-3)Gal(b1-4)GlcNAc(b1-3)Gal(b1-4)GlcNAc
How it was run: as §1

[23] = target: Neu5Ac(a2-3)Gal(b1-4)GlcNAc(b1-3)Gal(b1-4)GlcNAc(b1-3)Gal(b1-4)GlcNAc(b1-2)Man(a1-3)[Neu5Ac(a2-3)Gal(b1-4)GlcNAc(b1-3)Gal(b1-4)GlcNAc(b1-3)Gal(b1-4)GlcNAc(b1-2)Man(a1-6)]GalNAc
How it was run: as §1

[24] = target: Neu5Ac(a2-3)Gal(b1-4)GlcNAc(b1-3)Gal(b1-4)GlcNAc(b1-3)GalNAc
How it was run: as §1

[25] = target: Neu5Ac(a2-3)Gal(b1-4)GlcNAc(b1-3)Gal(b1-4)GlcNAc(b1-3)[Neu5Ac(a2-3)Gal(b1-4)GlcNAc(b1-3)Gal(b1-4)GlcNAc(b1-6)]GalNAc
How it was run: as §1

[26] = target: Neu5Ac(a2-3)Gal(b1-4)GlcNAc(b1-3)Gal(b1-4)GlcNAc(b1-6)[Gal(b1-3)]GalNAc
How it was run: as §1

[27] = target: Neu5Ac(a2-3)Gal(b1-4)GlcNAc(b1-3)Gal(b1-4)[Fuc(a1-3)]GlcNAc
How it was run: as §1

[28] = target: Neu5Ac(a2-3)Gal(b1-4)GlcNAc(b1-3)GalNAc
How it was run: as §1

[29] = target: Neu5Ac(a2-3)Gal(b1-4)GlcNAc(b1-3)[Neu5Ac(a2-3)Gal(b1-4)GlcNAc(b1-6)]GalNAc
How it was run: as §1

B1: B3GalT2 (Rattus norvegicus) (protein)
chain: LMLQWRRRHCCFAKMSWNAKRSLFRTHLMGVLSLVFLFAMFLFFNHHDWLPGRPGFKENPVTYTFRGFRSTKTETNQSSLRNIWKEVVPQTLRPQTATNSNNTELSPQGVTGLENTLSANGSIYNEKGTGHPNSYHFKYIINEPEKCQEKSPFLILLIAAEPGQIEARRAIRQTWGNETLAPGIQITRIFLLGISIKLNGYLQHAIQEESIQYHDIIQQEYLDTYYNLTIKTLMGMNWVATYCPHTPYVMKTDSDMFVNTEYLIHKLLKPDLPPRHNYFTGYLMRGYAPNRNKDSKWYMPPDLYPSERYPVFCSGTGYVFSGDLAEKIFKVSLGIRRLHLEDVYVGICLAKLRVDPVPPPNEFVFNHWRVSYSSCKYSHLITSHQFQPSELIKYWNHLQQNKHNACVNAAKEKAGRYRHRKLH
[1]
  glycan array binding signal (z-score): 0.763
[2]
  glycan array binding signal (z-score): 0.59
[3]
  glycan array binding signal (z-score): -0.767
[4]
  glycan array binding signal (z-score): 0.584
[5]
  glycan array binding signal (z-score): 0.042
[6]
  glycan array binding signal (z-score): -1.05
[7]
  glycan array binding signal (z-score): 1.02
Neu5Ac(a2-3)Gal(b1-4)Glc
  glycan array binding signal (z-score): -0.224
[8]
  glycan array binding signal (z-score): 1.9
[9]
  glycan array binding signal (z-score): -0.736
[10]
  glycan array binding signal (z-score): 0.483
[11]
  glycan array binding signal (z-score): 1.88
[12]
  glycan array binding signal (z-score): 0.417
[13]
  glycan array binding signal (z-score): 0.64
[14]
  glycan array binding signal (z-score): 1.83
[15]
  glycan array binding signal (z-score): 1.51
[16]
  glycan array binding signal (z-score): -0.979
[17]
  glycan array binding signal (z-score): 0.161
[18]
  glycan array binding signal (z-score): -0.297
[19]
  glycan array binding signal (z-score): -0.909
[20]
  glycan array binding signal (z-score): 1.43
[21]
  glycan array binding signal (z-score): -0.738
[22]
  glycan array binding signal (z-score): 0.577
[23]
  glycan array binding signal (z-score): -0.871
[24]
  glycan array binding signal (z-score): -0.13
[25]
  glycan array binding signal (z-score): -0.691
[26]
  glycan array binding signal (z-score): -0.87
[27]
  glycan array binding signal (z-score): 0.671
[28]
  glycan array binding signal (z-score): -0.392
[29]
  glycan array binding signal (z-score): 0.01
